The values below come from the supplement of paper PMC12819154, “High-throughput peptide-centric local stability assay extends protein–ligand identification to membrane proteins, tissues and bacteria” (Nature Structural & Molecular Biology, 2025).

By UniProt entry, the sequences of proteins in these tests, tags left out. Where a name states a change or a piece, a line headed by the entry shows the natural chain unless it says otherwise.
UniProt Q86VX2, whole entry: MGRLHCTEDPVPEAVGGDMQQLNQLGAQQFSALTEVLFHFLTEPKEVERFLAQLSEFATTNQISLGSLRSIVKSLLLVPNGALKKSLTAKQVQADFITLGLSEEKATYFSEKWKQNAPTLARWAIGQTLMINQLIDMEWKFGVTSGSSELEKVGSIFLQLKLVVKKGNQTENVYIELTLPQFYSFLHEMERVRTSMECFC
UniProt Q7Z2T5: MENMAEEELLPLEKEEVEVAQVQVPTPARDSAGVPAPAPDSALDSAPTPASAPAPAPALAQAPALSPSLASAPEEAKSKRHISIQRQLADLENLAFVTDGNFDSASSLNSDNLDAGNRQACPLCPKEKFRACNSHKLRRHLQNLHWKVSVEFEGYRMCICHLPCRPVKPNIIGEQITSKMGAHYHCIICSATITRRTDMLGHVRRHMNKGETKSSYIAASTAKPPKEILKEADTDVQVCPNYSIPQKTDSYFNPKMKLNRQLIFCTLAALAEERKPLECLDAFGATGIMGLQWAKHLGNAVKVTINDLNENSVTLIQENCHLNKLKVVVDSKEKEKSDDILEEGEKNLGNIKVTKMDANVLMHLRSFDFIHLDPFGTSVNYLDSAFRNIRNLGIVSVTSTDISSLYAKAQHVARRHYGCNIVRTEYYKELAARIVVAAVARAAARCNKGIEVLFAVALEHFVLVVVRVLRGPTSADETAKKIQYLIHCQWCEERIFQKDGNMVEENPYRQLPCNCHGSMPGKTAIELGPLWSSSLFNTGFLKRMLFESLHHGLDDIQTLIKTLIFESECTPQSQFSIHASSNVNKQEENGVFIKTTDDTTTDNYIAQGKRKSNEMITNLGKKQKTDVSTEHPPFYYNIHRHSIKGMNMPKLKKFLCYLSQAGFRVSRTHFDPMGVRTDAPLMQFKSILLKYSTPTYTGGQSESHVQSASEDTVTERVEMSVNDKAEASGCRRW
UniProt Q7L4I2: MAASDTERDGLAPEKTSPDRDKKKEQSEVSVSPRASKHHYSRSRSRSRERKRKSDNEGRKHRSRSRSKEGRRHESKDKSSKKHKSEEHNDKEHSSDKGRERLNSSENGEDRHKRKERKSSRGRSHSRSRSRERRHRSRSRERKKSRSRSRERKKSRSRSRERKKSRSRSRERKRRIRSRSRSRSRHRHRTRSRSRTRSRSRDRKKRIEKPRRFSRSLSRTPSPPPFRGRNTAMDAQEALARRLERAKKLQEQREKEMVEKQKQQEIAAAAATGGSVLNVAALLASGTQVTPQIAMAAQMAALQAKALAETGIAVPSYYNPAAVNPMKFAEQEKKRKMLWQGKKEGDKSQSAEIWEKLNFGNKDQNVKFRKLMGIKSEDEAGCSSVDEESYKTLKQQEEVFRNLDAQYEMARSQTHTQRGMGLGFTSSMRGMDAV
UniProt Q6ZVM7: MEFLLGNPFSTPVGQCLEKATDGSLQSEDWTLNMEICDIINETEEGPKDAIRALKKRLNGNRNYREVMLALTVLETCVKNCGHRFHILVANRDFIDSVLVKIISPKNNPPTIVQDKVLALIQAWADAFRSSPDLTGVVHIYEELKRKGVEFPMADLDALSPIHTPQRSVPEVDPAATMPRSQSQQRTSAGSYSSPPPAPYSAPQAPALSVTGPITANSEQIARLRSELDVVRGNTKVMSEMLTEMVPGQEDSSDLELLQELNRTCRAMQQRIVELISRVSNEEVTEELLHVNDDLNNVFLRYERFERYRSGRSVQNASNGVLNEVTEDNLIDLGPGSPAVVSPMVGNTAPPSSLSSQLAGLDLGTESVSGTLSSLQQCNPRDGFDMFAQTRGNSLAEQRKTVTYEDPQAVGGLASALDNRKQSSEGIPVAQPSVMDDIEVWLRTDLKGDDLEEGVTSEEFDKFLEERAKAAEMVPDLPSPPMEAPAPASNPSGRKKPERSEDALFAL
UniProt Q86TV6: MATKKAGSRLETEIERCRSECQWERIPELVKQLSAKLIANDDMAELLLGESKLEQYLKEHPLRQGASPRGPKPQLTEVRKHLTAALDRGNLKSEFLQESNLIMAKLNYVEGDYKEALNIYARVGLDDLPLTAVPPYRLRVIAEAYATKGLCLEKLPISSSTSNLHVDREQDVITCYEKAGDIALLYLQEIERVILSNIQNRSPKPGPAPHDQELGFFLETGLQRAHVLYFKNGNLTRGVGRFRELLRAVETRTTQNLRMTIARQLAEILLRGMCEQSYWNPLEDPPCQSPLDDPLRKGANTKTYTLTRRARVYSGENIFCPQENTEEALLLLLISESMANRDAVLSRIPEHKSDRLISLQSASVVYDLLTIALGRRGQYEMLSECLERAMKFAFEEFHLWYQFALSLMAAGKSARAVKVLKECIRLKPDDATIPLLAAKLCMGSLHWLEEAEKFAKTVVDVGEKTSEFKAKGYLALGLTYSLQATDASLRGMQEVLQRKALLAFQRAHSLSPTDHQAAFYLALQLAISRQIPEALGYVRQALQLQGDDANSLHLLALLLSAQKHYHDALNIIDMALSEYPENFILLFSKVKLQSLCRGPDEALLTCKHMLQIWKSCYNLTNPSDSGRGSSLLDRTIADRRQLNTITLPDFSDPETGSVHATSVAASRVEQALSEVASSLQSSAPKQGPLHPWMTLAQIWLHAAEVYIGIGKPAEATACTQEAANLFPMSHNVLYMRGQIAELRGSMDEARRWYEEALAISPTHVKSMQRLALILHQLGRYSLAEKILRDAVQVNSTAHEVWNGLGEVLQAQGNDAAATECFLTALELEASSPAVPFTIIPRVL
UniProt Q6ZNG1: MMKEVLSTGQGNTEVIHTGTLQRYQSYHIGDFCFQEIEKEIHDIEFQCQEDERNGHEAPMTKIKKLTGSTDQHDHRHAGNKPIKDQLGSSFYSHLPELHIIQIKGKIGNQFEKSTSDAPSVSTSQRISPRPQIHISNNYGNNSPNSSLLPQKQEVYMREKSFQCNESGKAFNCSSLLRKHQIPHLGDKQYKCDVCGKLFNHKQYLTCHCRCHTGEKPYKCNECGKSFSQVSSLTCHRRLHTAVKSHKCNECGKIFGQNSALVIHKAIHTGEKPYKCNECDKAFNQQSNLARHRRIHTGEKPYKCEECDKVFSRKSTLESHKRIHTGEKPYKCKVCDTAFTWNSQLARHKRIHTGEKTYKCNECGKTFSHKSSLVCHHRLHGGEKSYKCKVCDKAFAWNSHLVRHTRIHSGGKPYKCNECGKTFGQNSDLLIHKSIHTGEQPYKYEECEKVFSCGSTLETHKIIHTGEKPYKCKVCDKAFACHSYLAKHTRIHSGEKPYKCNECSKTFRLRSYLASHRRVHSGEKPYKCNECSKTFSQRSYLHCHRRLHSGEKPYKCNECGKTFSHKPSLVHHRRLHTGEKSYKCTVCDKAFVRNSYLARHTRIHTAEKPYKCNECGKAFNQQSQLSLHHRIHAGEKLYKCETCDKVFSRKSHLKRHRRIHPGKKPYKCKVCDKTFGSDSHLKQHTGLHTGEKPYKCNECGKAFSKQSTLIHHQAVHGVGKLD
UniProt Q7Z3D6: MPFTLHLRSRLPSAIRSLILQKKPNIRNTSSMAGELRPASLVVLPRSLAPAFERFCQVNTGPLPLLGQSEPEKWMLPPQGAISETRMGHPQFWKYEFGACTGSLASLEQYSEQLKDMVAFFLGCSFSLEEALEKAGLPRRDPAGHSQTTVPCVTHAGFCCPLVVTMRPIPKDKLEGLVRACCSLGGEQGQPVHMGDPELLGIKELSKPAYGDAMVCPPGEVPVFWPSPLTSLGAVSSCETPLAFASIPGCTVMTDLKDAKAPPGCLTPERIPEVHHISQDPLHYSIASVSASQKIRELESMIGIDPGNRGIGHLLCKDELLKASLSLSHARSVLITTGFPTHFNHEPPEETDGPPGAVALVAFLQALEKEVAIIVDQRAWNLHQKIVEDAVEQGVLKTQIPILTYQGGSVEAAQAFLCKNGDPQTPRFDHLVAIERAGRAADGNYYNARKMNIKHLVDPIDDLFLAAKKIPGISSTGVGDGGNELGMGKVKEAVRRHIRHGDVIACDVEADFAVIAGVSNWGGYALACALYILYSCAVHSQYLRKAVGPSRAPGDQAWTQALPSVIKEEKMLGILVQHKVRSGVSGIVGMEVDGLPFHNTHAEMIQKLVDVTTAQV
UniProt Q7Z3Z4: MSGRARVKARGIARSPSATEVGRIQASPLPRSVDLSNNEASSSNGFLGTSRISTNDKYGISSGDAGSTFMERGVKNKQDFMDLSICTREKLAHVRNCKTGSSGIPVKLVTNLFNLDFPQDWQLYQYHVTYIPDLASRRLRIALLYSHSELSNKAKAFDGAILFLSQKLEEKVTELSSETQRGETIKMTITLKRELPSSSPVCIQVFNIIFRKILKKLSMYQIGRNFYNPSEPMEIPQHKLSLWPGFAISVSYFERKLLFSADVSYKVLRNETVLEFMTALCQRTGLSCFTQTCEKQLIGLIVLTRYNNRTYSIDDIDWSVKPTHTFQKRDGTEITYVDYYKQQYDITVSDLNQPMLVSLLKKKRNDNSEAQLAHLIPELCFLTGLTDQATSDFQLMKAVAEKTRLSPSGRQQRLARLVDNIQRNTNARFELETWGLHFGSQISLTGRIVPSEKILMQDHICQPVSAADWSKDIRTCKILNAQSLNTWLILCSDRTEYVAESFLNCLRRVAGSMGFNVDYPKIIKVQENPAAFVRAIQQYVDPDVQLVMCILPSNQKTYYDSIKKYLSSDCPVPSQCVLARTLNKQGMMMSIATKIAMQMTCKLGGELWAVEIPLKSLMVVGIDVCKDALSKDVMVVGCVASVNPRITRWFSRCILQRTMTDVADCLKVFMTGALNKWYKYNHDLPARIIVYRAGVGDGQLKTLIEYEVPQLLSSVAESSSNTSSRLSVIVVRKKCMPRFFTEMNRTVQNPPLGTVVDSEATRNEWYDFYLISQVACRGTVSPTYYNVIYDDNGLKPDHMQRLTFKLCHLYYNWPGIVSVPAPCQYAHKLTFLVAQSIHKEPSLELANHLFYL
UniProt Q86VK4: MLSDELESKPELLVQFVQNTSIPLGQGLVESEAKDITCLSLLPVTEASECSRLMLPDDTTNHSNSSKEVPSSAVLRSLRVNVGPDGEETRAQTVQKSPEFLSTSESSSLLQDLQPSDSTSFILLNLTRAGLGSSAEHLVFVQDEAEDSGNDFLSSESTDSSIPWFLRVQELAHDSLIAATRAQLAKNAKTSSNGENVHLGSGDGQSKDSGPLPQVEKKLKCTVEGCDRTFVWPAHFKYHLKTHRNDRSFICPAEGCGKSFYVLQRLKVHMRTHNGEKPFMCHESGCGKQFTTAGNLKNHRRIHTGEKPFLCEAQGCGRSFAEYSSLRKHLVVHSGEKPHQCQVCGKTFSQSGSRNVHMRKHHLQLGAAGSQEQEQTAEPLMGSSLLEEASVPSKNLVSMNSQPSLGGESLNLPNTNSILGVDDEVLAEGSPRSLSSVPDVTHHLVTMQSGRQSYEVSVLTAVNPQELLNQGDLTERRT
UniProt Q7Z4H8: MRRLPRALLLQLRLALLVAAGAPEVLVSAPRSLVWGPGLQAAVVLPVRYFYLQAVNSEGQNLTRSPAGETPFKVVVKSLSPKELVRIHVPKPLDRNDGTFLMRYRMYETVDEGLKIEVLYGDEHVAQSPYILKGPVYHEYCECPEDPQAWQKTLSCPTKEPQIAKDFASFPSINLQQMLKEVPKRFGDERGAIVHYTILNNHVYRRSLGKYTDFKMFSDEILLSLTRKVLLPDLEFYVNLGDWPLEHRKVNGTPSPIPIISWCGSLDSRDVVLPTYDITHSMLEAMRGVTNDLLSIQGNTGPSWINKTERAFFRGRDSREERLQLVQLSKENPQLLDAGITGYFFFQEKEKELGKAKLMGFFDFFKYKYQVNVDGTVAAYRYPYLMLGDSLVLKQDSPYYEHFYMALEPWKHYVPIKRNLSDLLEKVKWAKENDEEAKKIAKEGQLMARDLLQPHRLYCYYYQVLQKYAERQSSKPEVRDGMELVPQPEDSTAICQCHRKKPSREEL
UniProt Q86V21: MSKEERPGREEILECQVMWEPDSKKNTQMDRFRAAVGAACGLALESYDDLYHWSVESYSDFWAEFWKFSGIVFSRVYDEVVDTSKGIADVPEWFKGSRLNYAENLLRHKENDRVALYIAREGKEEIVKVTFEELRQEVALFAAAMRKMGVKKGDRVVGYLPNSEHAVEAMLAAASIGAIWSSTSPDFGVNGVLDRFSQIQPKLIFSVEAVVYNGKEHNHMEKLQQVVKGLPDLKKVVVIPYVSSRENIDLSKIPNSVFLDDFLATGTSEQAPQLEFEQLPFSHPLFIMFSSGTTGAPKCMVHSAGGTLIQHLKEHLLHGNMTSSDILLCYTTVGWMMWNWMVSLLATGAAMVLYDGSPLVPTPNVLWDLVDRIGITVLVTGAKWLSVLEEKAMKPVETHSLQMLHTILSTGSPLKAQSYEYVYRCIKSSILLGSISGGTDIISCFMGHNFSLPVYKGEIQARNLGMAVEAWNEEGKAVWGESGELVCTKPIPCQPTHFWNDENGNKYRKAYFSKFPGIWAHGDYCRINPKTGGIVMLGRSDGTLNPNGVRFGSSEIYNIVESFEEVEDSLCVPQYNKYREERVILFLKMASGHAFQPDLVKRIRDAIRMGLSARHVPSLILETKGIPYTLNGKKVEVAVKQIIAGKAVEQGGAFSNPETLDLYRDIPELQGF

Some of the results follow. Most values lie at the level of the controls, where differences are scatter.

Compound in this test: CN[C@@H]1C[C@H]2O[C@@](C)([C@@H]1OC)n1c3ccccc3c3c4c(c5c6ccccc6n2c5c31)C(=O)NC4 [staurosporine]
Nature of the test: log2 fold change of tryptic peptide abundance, ligand vs vehicle (limited proteolysis) (log2 ratio); higher = more trypsin-susceptible (destabilized). The note with it: ligand concentration: 20 uM; sample: K562 cleared lysate; digestion: 4 min, 22 C (HT-PELSA RT4min, Orbitrap Astral).
For “SETD3 (peptide sequence: NLEEEAGVQDALNIR, peptide start residue: 525) (UniProt Q86TU7)”, the log2 fold change was -0.201.

Regarding “DHDDS (peptide sequence: DQATVTEQLLR, peptide start residue: 273) (UniProt Q86SQ9)”, the log2 fold change was found to be 0.317.

As to “COMMD7 (peptide sequence: SLLLVPNGALKK, peptide start residue: 74) (UniProt Q86VX2)”, the log2 fold change came out at 0.498.

For the target “RTTN (peptide sequence: SSPLLPLLIFHNVCFSPANKPK, peptide start residue: 2115) (UniProt Q86VV8)”, the log2 fold change is 0.391.

Consider “UniProt Q7Z2T5 (peptide sequence: AEASGCRRW, peptide start residue: 725)”, for which the log2 fold change worked out at 0.835.

With “SRCAP (peptide sequence: AEDEEDIR, peptide start residue: 2248) (UniProt Q6ZRS2)”, the log2 fold change was -0.327.

Turning to “SPRED1 (peptide sequence: SSNIRPSPFEDLNAR, peptide start residue: 170) (UniProt Q7Z699)”, the log2 fold change was 0.128.

Regarding “RSRC2 (peptide sequence: SQSAEIWEKLNFGNKDQNVK, peptide start residue: 348) (UniProt Q7L4I2)”, the log2 fold change is -0.777.

Regarding “TOM1L2 (peptide sequence: KTVTYEDPQAVGGLASALDNRK, peptide start residue: 400) (UniProt Q6ZVM7)”, the log2 fold change was -0.303.

For the target “TTC7B (peptide sequence: LIANDDMAELLLGESK, peptide start residue: 37) (UniProt Q86TV6)”, the log2 fold change stood at 0.387.

Take “HEATR3 (peptide sequence: DIMTPLVALLK, peptide start residue: 122) (UniProt Q7Z4Q2)”: the log2 fold change is -0.394.

On to “UniProt Q6ZN19 (peptide sequence: GSLLTVHQIVHTR, peptide start residue: 185)”, for which the log2 fold change is -0.201.

For “UniProt Q7L9L4 (peptide sequence: HAEATLGSGNLR, peptide start residue: 31)”, the log2 fold change was 0.204.

As to “UniProt Q6ZNG1 (peptide sequence: SFQCNESGK, peptide start residue: 214)”, the log2 fold change is -0.0381.

“NT5DC3 (peptide sequence: TGAIIPELR, peptide start residue: 406) (UniProt Q86UY8)”: the log2 fold change stood at 0.244.

Regarding “UniProt Q7Z3D6 (peptide sequence: HLVDPIDDLFLAAK, peptide start residue: 455)”, the log2 fold change was -0.149.

Consider “SMIM29 (peptide sequence: MPLLDVKT, peptide start residue: 95) (UniProt Q86T20)”, for which the log2 fold change amounted to 0.0481.

Consider “PIWIL4 (peptide sequence: QLIGLIVLTR, peptide start residue: 296) (UniProt Q7Z3Z4)”, for which the log2 fold change stood at 0.236.

Turning to “CAND1 (peptide sequence: TLEDPDLNVRR, peptide start residue: 1014) (UniProt Q86VP6)”, the log2 fold change is 0.907.

With “UniProt Q7Z7L9 (peptide sequence: EQMLTMLPK, peptide start residue: 96)”, the log2 fold change was -0.192.

Take “MIER3 (peptide sequence: VKEYLVETSLR, peptide start residue: 218) (UniProt Q7Z3K6)”: the log2 fold change is -0.11.

With “ZNF410 (peptide sequence: VQELAHDSLIAATR, peptide start residue: 168) (UniProt Q86VK4)”, the log2 fold change was -0.175.

With “UniProt Q7Z4H8 (peptide sequence: TLSCPTKEPQIAK, peptide start residue: 153)”, the log2 fold change is -0.152.

Take “AACS (peptide sequence: MASGHAFQPDLVKR, peptide start residue: 589) (UniProt Q86V21)”: the log2 fold change was determined as 0.486.

For “TECPR1 (peptide sequence: NATGNSASGLGAGR, peptide start residue: 439) (UniProt Q7Z6L1)”, the log2 fold change was -0.00555.

Turning to “MICAL3 (peptide sequence: MQQMELASGAPRPR, peptide start residue: 1620) (UniProt Q7RTP6)”, the log2 fold change is 0.215.
